By UniProt entry, the sequences of proteins in these tests, tags left out. Where a name states a change or a piece, a line headed by the entry shows the natural chain unless it says otherwise. Residues count along the entry.
UniProt Q9GZZ9, residues 314-404: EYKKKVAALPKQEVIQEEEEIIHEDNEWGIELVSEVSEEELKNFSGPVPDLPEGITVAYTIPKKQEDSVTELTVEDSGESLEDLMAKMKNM
UniProt P61960: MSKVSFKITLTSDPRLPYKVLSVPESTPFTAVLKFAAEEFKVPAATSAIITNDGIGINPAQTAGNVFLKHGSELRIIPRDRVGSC

No constants are given. Whether binding was seen depends on the method and setting. Binding calls can cover weak binding; strength is not graded here.
These substances were tested against GST-Uba5^314-404 (UniProt Q9GZZ9) (assay: pull-down).
Ufm1 T46A (from UniProt P61960) was tested, and the binding was “binds”. In the case of Ufm1 V66A (from UniProt P61960), the binding is reported as “binds”. With Ufm1 S47A (from UniProt P61960) the binding was “binds”. In the case of “Ubiquitin fold modifier 1 (Ufm1), wild type (from UniProt P61960)”, the binding is reported as “binds”. With Ufm1 L33A (from UniProt P61960) the binding was “binds”.

— article doi:10.1101/161802
